Data: US9056048B2, “Synthesis and use of cationic steroids for anti-inflammatory drug therapy” (priority 2001, dated 2015)
For some assays here: At least one structure is not confirmed: it was looked up by name or label, or the drawing left a doubt. Some results were stated once for a whole list of compounds, not compound by compound.

Key:
[1] = tested on: bone marrow-derived macrophage (BMM); experiment: Osteoclastogenesis in BMM culture (TRAP); type: cell-based, C57Bl/6 mice; settings: 100 nM, BMM with TRANCE and M-CSF, day 5
AdV vector = experiment: Neutralizing antibody (NAB) detection in sera; type: in vivo, C57Bl/6 mice; settings: day 28, single administration of formulated AdV vector

Compound | increase in mature osteoclasts (TRAP positive multinuclear cells) compared with dexamethasone [1] | levels of serum-circulating NAB (AdV vector)
CC1C[C@H]2[C@@H]3CCC4=CC(=O)C=C[C@]4(C)[C@@]3(F)C(O)C[C@]2(C)[C@@]1(O)C(=O)CSCCCC(=N)NCCCNCCCCNCCCN.O=C(O)C(F)(F)F (some centres unmarked) [DS, N-[3-({4-[(3-aminopropyl)amino]butyl}amino)propyl]-4-[(9-fluoro-11,17-dihydroxy-16-methyl-3,20-dioxopregna-1,4-dien-21-yl)sulfanyl]butanimidamide-TFA Salt] | > 30 fold | 
C[C@@H]1C[C@H]2[C@@H]3CCC4=CC(=O)C=C[C@]4(C)[C@@]3(F)[C@@H](O)C[C@]2(C)[C@@]1(O)C(=O)CO [dexamethasone] |  | dramatically reduced
